Test results taken from patent US20050043221A1 (BROWN UNIVERSITY, published 2005).
No constants are given. Whether binding was seen depends on the method and setting. For part of these data: Binding seen in cells or lysates may run through a third protein. Some entries that bind do so weakly or less than the wild type. Sequences can lack the tags named with a protein.

What was measured:
[1] = biological target: T1, α-sarcoglycan, 35S-methionine-labelled, in vitro translated (human) (UniProt Q16586); experiment: blot overlay with 35S in vitro translated sarcoglycan
T1 sequence (looked up): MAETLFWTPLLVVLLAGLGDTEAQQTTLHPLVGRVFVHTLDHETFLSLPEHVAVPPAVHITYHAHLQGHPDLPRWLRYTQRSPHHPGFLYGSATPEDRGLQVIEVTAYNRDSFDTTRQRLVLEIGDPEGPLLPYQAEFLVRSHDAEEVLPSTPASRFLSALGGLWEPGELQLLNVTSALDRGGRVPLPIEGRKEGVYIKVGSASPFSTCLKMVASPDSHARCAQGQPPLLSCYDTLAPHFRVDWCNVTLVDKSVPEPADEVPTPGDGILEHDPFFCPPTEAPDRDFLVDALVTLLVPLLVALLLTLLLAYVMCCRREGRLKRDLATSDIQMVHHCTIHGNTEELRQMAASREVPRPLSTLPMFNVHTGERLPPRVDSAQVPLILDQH

[2] = biological target: T1, α-sarcoglycan, 35S-methionine-labelled, in vitro translated (human); experiment: blot overlay
[3] = biological target: T2, recombinant human biglycan core polypeptide (no side chains), His-tagged, vaccinia system (human) (UniProt P21810); experiment: blot overlay with 35S in vitro translated sarcoglycan (FIG. 8A)
T2 sequence: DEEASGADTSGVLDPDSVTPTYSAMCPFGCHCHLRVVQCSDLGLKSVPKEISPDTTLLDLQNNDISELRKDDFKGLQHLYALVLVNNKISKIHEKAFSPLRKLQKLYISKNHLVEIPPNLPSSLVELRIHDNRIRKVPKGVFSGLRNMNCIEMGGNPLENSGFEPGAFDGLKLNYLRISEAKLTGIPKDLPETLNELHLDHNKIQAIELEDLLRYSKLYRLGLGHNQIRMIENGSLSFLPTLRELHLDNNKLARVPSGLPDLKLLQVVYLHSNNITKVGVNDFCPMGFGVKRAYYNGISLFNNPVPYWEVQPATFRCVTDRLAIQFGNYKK

[4] = biological target: T2, recombinant human biglycan core polypeptide (no side chains), His-tagged, vaccinia system (human); experiment: blot overlay, 1 µg of purified recombinant protein (FIG. 19B)
[5] = biological target: T2, recombinant human biglycan core polypeptide (no side chains), His-tagged, vaccinia system (human); experiment: blot overlay on purified recombinant biglycan core (FIG. 17C)
[6] = biological target: T2, recombinant human biglycan core polypeptide (no side chains), His-tagged, vaccinia system (human); experiment: co-immunoprecipitation in solution with anti-biglycan or anti-poly-His, protein G beads (FIG. 18A)

Measured: binding

B1: recombinant human biglycan core polypeptide (no side chains), His-tagged, vaccinia system (protein, not shown: small tags and cut ends)
chain: DEEASGADTSGVLDPDSVTPTYSAMCPFGCHCHLRVVQCSDLGLKSVPKEISPDTTLLDLQNNDISELRKDDFKGLQHLYALVLVNNKISKIHEKAFSPLRKLQKLYISKNHLVEIPPNLPSSLVELRIHDNRIRKVPKGVFSGLRNMNCIEMGGNPLENSGFEPGAFDGLKLNYLRISEAKLTGIPKDLPETLNELHLDHNKIQAIELEDLLRYSKLYRLGLGHNQIRMIENGSLSFLPTLRELHLDNNKLARVPSGLPDLKLLQVVYLHSNNITKVGVNDFCPMGFGVKRAYYNGISLFNNPVPYWEVQPATFRCVTDRLAIQFGNYKK
binds: [1] | [2]

B2: α-sarcoglycan, 35S-methionine-labelled, in vitro translated (protein, human, UniProt Q16586 1-387, looked up)
chain: MAETLFWTPLLVVLLAGLGDTEAQQTTLHPLVGRVFVHTLDHETFLSLPEHVAVPPAVHITYHAHLQGHPDLPRWLRYTQRSPHHPGFLYGSATPEDRGLQVIEVTAYNRDSFDTTRQRLVLEIGDPEGPLLPYQAEFLVRSHDAEEVLPSTPASRFLSALGGLWEPGELQLLNVTSALDRGGRVPLPIEGRKEGVYIKVGSASPFSTCLKMVASPDSHARCAQGQPPLLSCYDTLAPHFRVDWCNVTLVDKSVPEPADEVPTPGDGILEHDPFFCPPTEAPDRDFLVDALVTLLVPLLVALLLTLLLAYVMCCRREGRLKRDLATSDIQMVHHCTIHGNTEELRQMAASREVPRPLSTLPMFNVHTGERLPPRVDSAQVPLILDQH
binds: [3] | [4] | [5] | [6]
